No constants are given. Whether binding was seen depends on the method and setting. Binding seen in cells or lysates may run through a third protein. These calls come from enrichment with a bait or labelling near it, and not all partners need be listed.
Biological target: Flag-RTEL1 (full-length) (human) (UniProt Q9NZ71)
Assay: affinity purification with mass spectrometry; Flag-RTEL1 expressing HeLa cells; whole cell lysates treated with a cocktail of DNases and RNases; Flag immunopurified, eluted with Flag peptides, resolved by PAGE, silver-stained bands cut and analysed by LC-MS; control Flag-CHFR

Sequences of proteins named here, by UniProt entry; tags and fusion partners are left off. A change or cut given only in a name is not applied to a line headed by its entry.
UniProt Q9NZ71: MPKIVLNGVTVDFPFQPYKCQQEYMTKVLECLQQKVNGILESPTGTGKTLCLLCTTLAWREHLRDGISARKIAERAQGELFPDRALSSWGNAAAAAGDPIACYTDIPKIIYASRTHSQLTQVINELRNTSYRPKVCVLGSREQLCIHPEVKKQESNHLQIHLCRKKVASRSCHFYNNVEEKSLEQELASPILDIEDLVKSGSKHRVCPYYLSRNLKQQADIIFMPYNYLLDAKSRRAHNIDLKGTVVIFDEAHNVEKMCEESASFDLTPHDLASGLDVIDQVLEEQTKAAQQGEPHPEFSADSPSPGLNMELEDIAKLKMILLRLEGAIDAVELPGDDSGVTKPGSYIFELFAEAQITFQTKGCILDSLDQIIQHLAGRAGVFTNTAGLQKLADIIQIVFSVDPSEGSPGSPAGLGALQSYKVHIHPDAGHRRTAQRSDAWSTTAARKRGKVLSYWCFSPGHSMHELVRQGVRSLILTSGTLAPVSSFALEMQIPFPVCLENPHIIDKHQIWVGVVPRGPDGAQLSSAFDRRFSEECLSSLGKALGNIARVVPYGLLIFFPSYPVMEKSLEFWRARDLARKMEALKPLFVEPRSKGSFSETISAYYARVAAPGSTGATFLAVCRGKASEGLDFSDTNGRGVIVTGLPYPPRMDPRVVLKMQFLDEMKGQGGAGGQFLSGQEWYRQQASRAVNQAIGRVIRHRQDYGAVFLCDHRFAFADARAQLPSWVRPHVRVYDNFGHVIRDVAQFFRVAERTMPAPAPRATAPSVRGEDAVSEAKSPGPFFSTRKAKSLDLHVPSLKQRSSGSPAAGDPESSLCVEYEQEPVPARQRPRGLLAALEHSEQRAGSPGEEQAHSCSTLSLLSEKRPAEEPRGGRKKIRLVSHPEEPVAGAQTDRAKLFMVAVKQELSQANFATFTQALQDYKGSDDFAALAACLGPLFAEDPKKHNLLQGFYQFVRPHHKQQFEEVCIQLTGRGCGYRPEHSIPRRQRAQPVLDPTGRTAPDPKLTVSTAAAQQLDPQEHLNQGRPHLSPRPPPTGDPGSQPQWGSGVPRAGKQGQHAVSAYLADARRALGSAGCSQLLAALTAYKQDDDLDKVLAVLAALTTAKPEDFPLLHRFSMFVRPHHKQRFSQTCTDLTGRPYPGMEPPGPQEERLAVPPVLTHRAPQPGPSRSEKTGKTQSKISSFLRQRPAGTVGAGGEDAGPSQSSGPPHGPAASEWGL

binding: binds
B1: endogenous Poldip3 (protein, UniProt Q9BY77 1-421)
chain: MADISLDELIRKRGAAAKGRLNARPGVGGVRSRVGIQQGLLSQSTRTATFQQRFDARQKIGLSDARLKLGVKDAREKLLQKDARFRIKGKVQDAREMLNSRKQQTTVPQKPRQVADAREKISLKRSSPAAFINPPIGTVTPALKLTKTIQVPQQKAMAPLHPHPAGMRINVVNNHQAKQNLYDLDEDDDGIASVPTKQMKFAASGGFLHHMAGLSSSKLSMSKALPLTKVVQNDAYTAPALPSSIRTKALTNMSRTLVNKEEPPKELPAAEPVLSPLEGTKMTVNNLHPRVTEEDIVELFCVCGALKRARLVHPGVAEVVFVKKDDAITAYKKYNNRCLDGQPMKCNLHMNGNVITSDQPILLRLSDSPSMKKESELPRRVNSASSSNPPAEVDPDTILKALFKSSGASVTTQPTEFKIKL
